# These are yes or no findings as the source states them, for the method shown. For some assays here: Binding seen in cells or lysates may run through a third protein. Some entries that bind do so weakly or less than the wild type.
# Chains of the proteins cited; added tags and fusions are not shown.
# UniProt Q969R5: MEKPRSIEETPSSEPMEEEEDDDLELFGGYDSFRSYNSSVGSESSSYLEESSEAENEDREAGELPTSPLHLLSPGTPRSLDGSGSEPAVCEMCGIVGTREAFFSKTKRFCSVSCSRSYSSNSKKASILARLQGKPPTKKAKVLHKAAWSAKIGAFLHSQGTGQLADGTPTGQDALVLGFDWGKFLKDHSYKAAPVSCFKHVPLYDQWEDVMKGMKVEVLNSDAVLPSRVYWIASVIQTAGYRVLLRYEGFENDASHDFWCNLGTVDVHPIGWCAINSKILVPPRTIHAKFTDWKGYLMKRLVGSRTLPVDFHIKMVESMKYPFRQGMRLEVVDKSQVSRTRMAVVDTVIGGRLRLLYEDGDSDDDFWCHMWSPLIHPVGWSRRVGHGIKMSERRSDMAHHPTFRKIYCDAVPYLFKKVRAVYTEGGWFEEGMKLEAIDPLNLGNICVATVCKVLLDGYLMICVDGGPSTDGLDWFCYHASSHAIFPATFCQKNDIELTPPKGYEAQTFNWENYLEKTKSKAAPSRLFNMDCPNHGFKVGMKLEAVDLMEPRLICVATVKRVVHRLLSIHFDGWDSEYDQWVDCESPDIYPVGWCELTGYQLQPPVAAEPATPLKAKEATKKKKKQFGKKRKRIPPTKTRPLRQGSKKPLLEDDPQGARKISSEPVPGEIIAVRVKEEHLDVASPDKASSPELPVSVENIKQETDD
# UniProt Q16531: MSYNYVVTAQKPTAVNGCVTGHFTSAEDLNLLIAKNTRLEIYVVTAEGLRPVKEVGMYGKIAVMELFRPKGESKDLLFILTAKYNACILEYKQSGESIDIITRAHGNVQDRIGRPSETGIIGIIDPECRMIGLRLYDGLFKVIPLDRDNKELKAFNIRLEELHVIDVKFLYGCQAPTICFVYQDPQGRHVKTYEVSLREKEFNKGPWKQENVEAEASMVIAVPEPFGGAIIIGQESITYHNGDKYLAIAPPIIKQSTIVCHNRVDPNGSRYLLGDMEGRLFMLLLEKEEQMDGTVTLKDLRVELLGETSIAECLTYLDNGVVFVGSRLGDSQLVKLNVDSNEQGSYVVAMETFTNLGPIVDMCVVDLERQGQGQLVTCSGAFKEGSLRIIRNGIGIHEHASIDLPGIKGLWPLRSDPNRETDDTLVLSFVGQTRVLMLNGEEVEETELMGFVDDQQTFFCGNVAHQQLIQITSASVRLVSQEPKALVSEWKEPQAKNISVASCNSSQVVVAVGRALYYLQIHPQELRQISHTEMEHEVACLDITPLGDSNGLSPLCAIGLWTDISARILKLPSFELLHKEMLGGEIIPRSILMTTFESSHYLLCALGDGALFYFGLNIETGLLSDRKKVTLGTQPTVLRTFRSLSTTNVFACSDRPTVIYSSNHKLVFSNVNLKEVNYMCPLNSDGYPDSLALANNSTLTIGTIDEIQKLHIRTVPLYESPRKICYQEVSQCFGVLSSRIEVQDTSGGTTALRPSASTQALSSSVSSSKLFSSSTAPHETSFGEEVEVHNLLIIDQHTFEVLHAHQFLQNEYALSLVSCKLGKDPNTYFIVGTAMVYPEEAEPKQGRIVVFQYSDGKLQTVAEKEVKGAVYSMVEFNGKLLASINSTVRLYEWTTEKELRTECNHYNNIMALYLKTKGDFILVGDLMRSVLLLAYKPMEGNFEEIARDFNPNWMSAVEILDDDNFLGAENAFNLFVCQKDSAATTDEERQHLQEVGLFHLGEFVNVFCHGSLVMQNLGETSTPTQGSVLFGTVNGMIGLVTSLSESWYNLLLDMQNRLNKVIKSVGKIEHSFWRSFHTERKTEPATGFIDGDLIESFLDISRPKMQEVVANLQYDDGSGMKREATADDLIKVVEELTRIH
# How the values were obtained:
# [1] = molecular target: T1, cognate unmethylated K142 peptide of DNMT1 (human); assay: pull-down; DNMT1 K142me1 or K142me0 peptide on Sulfolink resin, pre-blocked with 5 μg GST for 2 h, then 1.5 μg GST fusion protein in 0.1% NP40, 50 mM Tris-Cl pH 7.5, 150 mM NaCl at 4 °C; western blot; both purified
# T1 sequence (peptide, coupled to Sulfolink resin through the C-terminal cysteine): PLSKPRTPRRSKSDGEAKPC
# [2] = molecular target: T2, L3MBTL3, endogenous (human (endogenous in HCT116)) (UniProt Q96JM7); assay: co-IP; endogenous proteins immunoprecipitated from HCT116 lysates (0.5% NP40, 50 mM Tris pH 7.5, 150 mM NaCl; usually 500 μg lysate; Protein A-Sepharose), western blot; in some panels cells with SET7 expression, SET7 or PHF20L1 siRNA, MG132 5 μg/ml for the last 6 h
# T2 sequence: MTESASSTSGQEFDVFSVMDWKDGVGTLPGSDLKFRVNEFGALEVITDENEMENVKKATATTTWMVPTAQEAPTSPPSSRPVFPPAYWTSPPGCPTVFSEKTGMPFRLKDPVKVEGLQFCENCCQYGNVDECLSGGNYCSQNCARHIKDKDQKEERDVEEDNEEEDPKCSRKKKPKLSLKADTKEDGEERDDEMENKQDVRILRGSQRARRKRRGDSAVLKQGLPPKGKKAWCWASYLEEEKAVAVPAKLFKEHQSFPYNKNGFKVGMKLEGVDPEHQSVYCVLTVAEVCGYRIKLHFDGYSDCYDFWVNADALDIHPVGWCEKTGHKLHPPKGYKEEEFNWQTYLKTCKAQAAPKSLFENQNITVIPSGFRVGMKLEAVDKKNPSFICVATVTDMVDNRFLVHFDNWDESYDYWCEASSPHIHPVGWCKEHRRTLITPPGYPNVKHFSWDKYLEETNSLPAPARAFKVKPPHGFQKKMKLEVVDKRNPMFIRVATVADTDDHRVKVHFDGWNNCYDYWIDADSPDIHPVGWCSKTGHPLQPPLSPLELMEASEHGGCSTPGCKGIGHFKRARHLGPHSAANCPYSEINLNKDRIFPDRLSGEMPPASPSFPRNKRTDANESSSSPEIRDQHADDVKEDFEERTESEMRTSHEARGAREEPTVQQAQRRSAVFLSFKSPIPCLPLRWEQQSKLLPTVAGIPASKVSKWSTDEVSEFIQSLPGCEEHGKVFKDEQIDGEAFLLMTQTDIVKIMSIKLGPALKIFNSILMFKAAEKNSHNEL
Substance,binding [1],binding [2]
GST-L3MBTL2 (from UniProt Q969R5 1-705),no binding (tested: 1.5 μg),
"DDB1, endogenous (from UniProt Q16531 1-1140)",,binds

# Reference: publication PMC5915600
